PubChem BioAssay AID1259308 – NCATS – 2017
The deposit covers about 59,000 reagents; below is an unselected part. Over the whole deposit, about 1,510 (2.6%) are marked active. 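Calls use total luciferase alone and ignore viability, so some active siRNAs may act by altering cell number.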 A number with no mark means an inactive call. The numbers tell different reagents against one gene apart.

Assay: 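Candidate targets for better recombinant protein yield in mammalian cells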 (primary screen)
Cells: human HEK293 embryonic kidney cells stably expressing firefly luciferase (HEK-CMV-Luc2-Hygro)
Knock-down reagent: single siRNA against human genes, 0.8 pmol siRNA per well
Timing: 72 h
Measured: 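Reporter luminescence and viable-cell signal on separate replicate plates, given as percent of non-targeting control and median/MAD z-scores, plus per-cell luciferase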
Reading the numbers: total luciferase, z-score and total luciferase, % of control: higher = more reporter protein produced; luciferase per cell, z-score: higher = more reporter output per viable cell; viable cells, % of control: higher = more viable cells
Call rule: 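An siRNA counts as active if its total luciferase robust z-score exceeds 3; genes with two or more such siRNAs out of three were retested with fresh siRNAs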
Calls: active = raised luciferase; inactive = no rise

target gene	siRNA no.	total luciferase, z-score	total luciferase, % of control	luciferase per cell, z-score	viable cells, % of control
PRSS38	1	-0.998	62	-1.6	106
PRSS38	2	0.752	96.8	0.677	90.5
PRSS38	3	-0.676	68.4	-0.796	94.3
LACTBL1	1	0.173	85.3	0.275	88.7
LACTBL1	2	0.163	85.1	0.486	83.7
LACTBL1	3	-0.673	68.5	-0.364	84.3
TPRG1	1	0.274	87.3	0.615	83
TPRG1	2	-0.5	71.9	-0.89	102
TPRG1	3	-1.79	46.3	-2.02	88.1
PGK2	1	-0.769	66.6	0.541	64.5
PGK2	2	-0.377	74.4	-1.23	115
PGK2	3	0.225	86.4	-0.547	111
XPO5	1	-0.194	78	-0.574	101
XPO5	2	-0.782	66.3	-1.21	102
XPO5	3	-0.945	63.1	-1.14	95.1
IFT56	1	0.913	100	0.292	104
IFT56	2	0.848	98.8	-0.202	116
IFT56	3	-0.484	72.3	-0.612	94.9
ZNF780B	1	2.76	137	1.97	90.9
ZNF780B	2	-0.182	78.3	-0.311	94.9
ZNF780B	3	2.67	135	2.05	88
CEP76	1	-0.53	71.3	0.011	79.5
CEP76	2	-0.3	75.9	-1.05	112
CEP76	3	0.758	97	0.105	105
NME4	1	0.346	88.8	0.725	82
NME4	2	3.21 (active)	146	3.05	72.8
NME4	3	-2.41	34	-1.01	49.6
DERL2	1	0.953	101	0.445	100
DERL2	2	-0.419	73.5	-0.332	89.7
DERL2	3	-2.35	35.1	-1.83	63.6
ANO7	1	-1.01	61.8	-0.233	73.4
ANO7	2	0.421	90.3	0.161	96.7
ANO7	3	0.78	97.4	1.04	82.7
MDH2	1	0.441	90.7	0.236	95.2
MDH2	2	-0.0193	81.5	0.959	70.8
MDH2	3	-0.0452	81	-0.28	97.4
GPX3	1	1.52	112	1.03	95.5
GPX3	2	0.361	89.1	-0.434	112
GPX3	3	4.76 (active)	177	2.89	92.3
ARHGAP39	1	1.11	104	0.697	96.7
ARHGAP39	2	0.181	85.5	0.257	89.3
ARHGAP39	3	-1.32	55.7	-1.4	89.9
TTF2	1	-1.09	60.1	-0.659	79.9
TTF2	2	-0.128	79.3	-0.865	111
TTF2	3	0.209	86	-0.021	96.7
TSHB	1	0.671	95.2	0.79	86.4
TSHB	2	0.0484	82.8	0.649	78
TSHB	3	-0.711	67.7	-0.48	85.9
FASTKD2	1	-0.589	70.2	-1.15	106
FASTKD2	2	-1.41	53.8	-2.24	109
FASTKD2	3	-0.443	73.1	-0.0569	82.9
TREH	1	0.475	91.3	0.482	89.9
TREH	2	1.02	102	1.51	76.7
TREH	3	0.0815	83.5	-0.128	96.5
AKAP1	1	-0.986	62.3	-0.883	87.8
AKAP1	2	0.317	88.2	0.545	85.4
AKAP1	3	-2	42.2	-1.2	64.6
MYBL1	1	0.521	92.3	1	79.2
MYBL1	2	-0.218	77.6	-0.00049	86.7
MYBL1	3	-1.04	61.2	-0.222	72.6
MYBL1	4	-2.24	37.2	-1.94	69.3
MYBL1	5	0.105	84	-0.719	113
MYBL1	6	1.31	108	1.07	90.9
CPLX3	1	1.19	106	1.94	70.7
CPLX3	2	-0.39	74.1	-0.0833	84.7
CPLX3	3	-0.463	72.7	-0.151	84.5
OR7G2	1	1.02	102	0.901	90.1
OR7G2	2	-0.477	72.4	-0.03	81.5
OR7G2	3	0.781	97.4	1.6	71.4
CCNY	1	0.0562	83	0.405	83.4
CCNY	2	0.451	90.9	0.347	92.7
CCNY	3	3.36 (active)	149	2.51	85.9
TBC1D15	1	-0.989	62.2	-0.159	72.5
TBC1D15	2	-0.172	78.5	-0.371	96.7
TBC1D15	3	0.274	87.3	-0.539	112

Not a retest: an excerpt of the list.
target gene	siRNA no.	total luciferase, z-score	total luciferase, % of control	luciferase per cell, z-score	viable cells, % of control
GPX3	3	4.76 (active)	177	2.89	92.3
ARHGAP39	1	1.11	104	0.697	96.7
ARHGAP39	2	0.181	85.5	0.257	89.3
ARHGAP39	3	-1.32	55.7	-1.4	89.9
TTF2	1	-1.09	60.1	-0.659	79.9
TTF2	2	-0.128	79.3	-0.865	111
TTF2	3	0.209	86	-0.021	96.7
TSHB	1	0.671	95.2	0.79	86.4
TSHB	2	0.0484	82.8	0.649	78
TSHB	3	-0.711	67.7	-0.48	85.9
FASTKD2	1	-0.589	70.2	-1.15	106
FASTKD2	2	-1.41	53.8	-2.24	109
